PubChem BioAssay AID504467 (National Center for Advancing Translational Sciences (NCATS), 2011)
Out of some 330,000 compounds screened, about 7,700 (2.3%) were called active. This list was built around the results that the source calls inconclusive (neither active nor inactive); the mix of calls is not that of the screen. Calls come from the whole dose curve; as a rule, active = well fitted inhibition curve with a large enough effect; inconclusive = small, poorly fitted or top-dose-only effect, or effect the other way; inactive = flat fitted curve, though single readings scatter. Potencies of inconclusive entries are doubtful fits and often do not repeat.

Experiment: qHTS screen for small molecules that inhibit ELG1-dependent DNA repair in human embryonic kidney (HEK293T) cells expressing luciferase-tagged ELG1; note: nearly all actives have a fitted effect of over 55% in size
Conditions: HEK293T ELG1-luciferase reporter, luminescence, 16 h, DNA damage induced by 5-fluorouridine; activity change, negative = inhibition: at 46.1 µM (top of the series)
Outline: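 Luminescence from the luciferase reporter, measured 30 min after ONE-Glo reagent at room temperature, was the read-out. Beforehand, 2,000 cells per well were exposed for 16 hr at 37 °C to 5-fluorouridine together with compound or vehicle.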
% is set by controls: 0 for no effect and ±100 for the full control effect; potency is the fitted concentration of half-maximal effect.

| SMILES | Potency | activity change, negative = inhibition |
| --- | --- | --- |
| COc1ccc(CNc2nc(-c3ccccc3)nn2C(=O)c2ccc([N+](=O)[O-])cc2)cc1 | inconclusive: 20.6 µM [activator, partial curve] | – |
| Cc1ccc(-n2nnnc2CNC(=O)c2ccc(Br)o2)cc1C | – | inactive: -0.676% |
| Cc1csc2ncc(C(=O)Nc3cccc(C(F)(F)F)c3)c(=O)n12 | inconclusive: 16.4 µM [activator, single point] | – |
| Cc1cc(=O)oc2c(N)c(O)ccc12 | inconclusive: 29.1 µM [activator, partial curve, poor fit] | – |
| CC(C)OC(=O)c1cc2c(ccn2C)n1CC(=O)N1CCC(Cc2ccccc2)CC1 | – | inactive: 0.552% |
| CN(C)CCN1C(=O)c2oc3ccc(F)cc3c(=O)c2C1c1ccncc1 (centres undefined) | inconclusive: 23.1 µM [activator, partial curve, poor fit] | – |
| Clc1ccc(CSc2ccc(-c3ccco3)nn2)cc1 | inconclusive: 16.4 µM [activator, partial curve] | – |
| Cc1ccc(CN2CC(C(=O)N3CCN(S(=O)(=O)c4cc(C)ccc4C)CC3)CC2=O)cc1 (centres undefined) | – | inactive: -2.99% |
| N#Cc1ccc(Oc2cc(C(F)(F)F)nc(-c3ccccn3)n2)cc1 | – | inactive: -1.14% |
| CCCCCCn1nc(C(=O)Nc2nc3c(s2)CCCC3)c2ccccc2c1=O | inconclusive: 18.4 µM [inhibitor, partial curve] | – |
| CNC(=O)c1sc(NCc2ccccc2OC)nc1C | inconclusive: 23.1 µM [activator, single point] | – |
| Fc1ccc2cc(-c3cccnc3)ncc2c1 | inconclusive: 16.4 µM [activator, partial curve] | – |
| CCN1CCN(CCC(=O)Nc2cccc(C)c2)CC1 | – | inactive: 2.09% |
| CCN(C[C@H]1N[C@@](C)(C(=O)OC)[C@H]2C(=O)N(C)C(=O)[C@@H]12)S(=O)(=O)c1ccc(C(F)(F)F)cc1 | – | inactive: -1.12% |
| Cc1cccc(CN2C(=O)N/C(=C/c3cc(C)n(-c4ccccn4)c3C)C2=O)c1 | inconclusive: 29.1 µM [inhibitor, partial curve, poor fit] | – |
| CCCCNC(=O)CO/N=C(\C)c1cc2ccccc2o1 | inconclusive: 18.4 µM [activator, partial curve] | – |
| CC1=C(C(=O)OC2CCCCC2)C(c2ccco2)n2ncnc2N1 (centres undefined) | inconclusive: 23.1 µM [inhibitor, single point] | – |
| COc1ccc(N2CCN(C(=O)c3cc4c(=O)n(Cc5ccccc5)ccc4nc3C)CC2)cc1 | inconclusive: 14.6 µM [inhibitor, partial curve] | – |
| CN1CCCN=C1/C=C/c1cccs1 | – | inactive: 8.45% |
| COc1ccc(N2CCN(C(=O)CN(c3cccc(Br)c3)S(C)(=O)=O)CC2)cc1 | inconclusive: 18.4 µM [inhibitor, partial curve] | – |
| COc1cc(OC)cc(C(=O)Nc2ccccc2C(=O)NC2CC2)c1 | inconclusive: 20.6 µM [inhibitor, single point] | – |
| CN(C)S(=O)(=O)c1ccc(Cl)c(NC(=O)COC(=O)c2ccc(O)cc2)c1 | inconclusive: 16.4 µM [inhibitor, single point] | – |

Pulled by structure from the list above, 2 records:

| SMILES | Potency | activity change, negative = inhibition |
| --- | --- | --- |
| Clc1ccc(CSc2ccc(-c3ccco3)nn2)cc1 | inconclusive: 16.4 µM [activator, partial curve] | – |
| CNC(=O)c1sc(NCc2ccccc2OC)nc1C | inconclusive: 23.1 µM [activator, single point] | – |

Additional compounds.

| SMILES | Potency | activity change, negative = inhibition |
| --- | --- | --- |
| CSCCC(NC(N)=O)C(=O)Nc1ccc(F)c(Cl)c1 (centres undefined) | – | inactive: 9.19% |
| COc1ccc(OC)c(-c2csc(NC(=O)C3=NN(c4ccccc4)C(=O)CC3)n2)c1 | inconclusive: 20.6 µM [inhibitor, partial curve] | – |
| CCc1ccc(NC(=O)C(=O)N/N=C(\C)CC(=O)Nc2ccc(OC)cc2)cc1 | inconclusive: 16.4 µM [activator, single point] | – |
| CC(=O)c1cc(-c2ccccc2)n(CCC(=O)NCc2cccs2)c1C | – | inactive: 12% |
| COC(=O)c1ccccc1NC(=O)c1ccc2c(c1)OCCCO2 | inconclusive: 16.4 µM [activator, partial curve] | – |
| CSc1sccc1/C=C(/C#N)C(=O)c1ccco1 | inconclusive: 25.9 µM [activator, single point] | – |
| O=[N+]([O-])c1cc([N+](=O)[O-])c(Oc2ccc(Br)cc2Br)cc1NN1CCCCC1 | – | inactive: 0% |
| O=C(N/N=C/c1ccccc1OC(=O)N1CCOCC1)c1cccs1 | – | inactive: 4.08% |
| CC(C)c1nnc(NC(=O)CCS(=O)(=O)c2nc(-c3cccs3)cc(C(F)(F)F)n2)s1 | inconclusive: 29.1 µM [inhibitor, single point] | – |
| CN(C)S(=O)(=O)N1CCC(c2ccc(F)cc2)C(COc2ccc3c(c2)OCO3)C1 (centres undefined) | active: 16.4 µM | – |
| COc1ccc(/C=C2\CC/C(=C\c3ccc(OC)c(OC)c3)C2=O)cc1OC | inconclusive: 8.2 µM [inhibitor, partial curve] | – |
| Cc1cc(C)nc(NS(=O)(=O)c2ccc(N=Cc3c(C)[nH]n(-c4ccccc4)c3=O)cc2)n1 | – | inactive: 17.7% |
| O=C(CSc1nnnn1C1CCCC1)N1CCOCC1 | inconclusive: 29.1 µM [activator, single point] | – |
| COc1ccccc1N(CC(=O)NCCSCc1ccccc1)S(C)(=O)=O | – | inactive: -24.4% |
| Cn1c2ccccc2c2c(C(=O)N3CCN(c4ccc(F)cc4)CC3)cn(C3CCCC3)c(=O)c21 | inconclusive: 29.1 µM [inhibitor, single point] | – |
| COc1ccc(-c2nnc3ccc(SCC(=O)N4CCCCCC4)nn23)cc1OC | inconclusive: 6.51 µM [inhibitor, partial curve] | – |
| O=C(C1CCN(Cc2ccc(F)cc2)CC1)N(CCc1ccccc1)Cc1ccccc1 | – | inactive: -28.3% |
| C=CCNC(=S)N/N=C/c1ccc(OCc2ccccc2Cl)cc1 | inconclusive: 20.6 µM [activator, partial curve, poor fit] | – |
| Cn1c(=O)n(C)c2cc([N+](=O)[O-])c(N3CCN(S(=O)(=O)c4ccc(C(C)(C)C)cc4)CC3)cc21 | inconclusive: 16.4 µM [inhibitor, partial curve, poor fit] | – |
| CC(C)(C)c1nnc(NC(=O)Cc2ccccc2[N+](=O)[O-])s1 | inconclusive: 16.4 µM [activator, single point] | – |
| CN=CC1=C(O)c2ccccc2C1=O | – | inactive: 18.2% |
| Cc1ccc(C(=O)OCC(=O)N2C(C)CCCC2C)s1 (centres undefined) | inconclusive: 23.1 µM [activator, partial curve] | – |
